{
  "source": "patent US10799508B2",
  "about": "“Methods for treating cancer using HSP90 inhibitors” (AI Therapeutics, Inc., priority 2017, dated 2020)",
  "key": {"p-STAT1 in HCC-38 cells": {"test_system": "p-STAT1 in HCC-38 cells", "experiment": "Western blot of IFN-γ-induced pSTAT1", "assay_type": "cell-based, human", "conditions": "HCC-38, ruxolitinib 5000 nM", "procedure": "FIG. 5. HCC-38 cells treated with IFN-γ alone or co-treated with ruxolitinib (5000 nM) or MPC-3100 (10-5000 nM) were analyzed by Western blot to determine protein expression levels of HSP70 and pSTAT1. β-Actin was used as a loading control.\nSince IFN-γ stimulates the expression of its target genes, such as PD-L1, which is mediated via JAK/STAT-1 signaling, the human HCC-38 cell line was used to probe the mechanism for IFN-γ-induced PD-L1 expression."}, "[1]": {"test_system": "IFN-γ-induced PD-L1 expression in HCC-38 cells", "experiment": "Western blot of IFN-γ-induced PD-L1 protein expression", "assay_type": "cell-based, human", "conditions": "HCC-38, ruxolitinib 5000 nM (positive control, JAK2 inhibitor)", "procedure": "FIG. 3. […] Human HCC-38 cells treated with IFN-γ alone or co-treated with ruxolitinib (5000 nM) or MPC-3100 (10-5000 nM) for 48 h were analyzed by Western blot analysis to determine protein expression levels of PD-L1. Ruxolitinib served as a positive control for inhibiting JAK2. β-Actin was used as a loading control."}},
  "note": "At least one structure is not confirmed: it was looked up by name or label, or the drawing left a doubt.",
  "data": [
    {"compound": "N#CC[C@H](C1CCCC1)n1cc(-c2ncnc3[nH]ccc23)cn1", "note": "[ruxolitinb, ruxolitinib]", "values": [
      {"measurement": "p-STAT", "setting": "p-STAT1 in HCC-38 cells", "value": "inhibition"},
      {"measurement": "IFN-induced PD-L1 expression", "setting": "[1]", "value": "blocked"}
    ]}
  ]
}
